PubChem BioAssay AID1508597 | Cure First – 2020
Test: 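Genes whose silencing sensitises or protects ovarian cancer cells against rucaparib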 (primary screen). Cell system: human ovarian carcinoma lines grown from tumours: OCI-P5x (papillary serous) and OCI-C5x (clear cell). Reagent: siRNA pool against human genes, 1.25 pmol siRNA per well. Time to read-out: 72 h or 96 h, depending on the cell culture. Conditions: rucaparib 20 µM (about IC30) or vehicle, present until read-out. Rucaparib or vehicle: Vehicle. Cell line: OCI-P5x (serous). Read-out: 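Luminescent ATP-based viability assay read 72 or 96 h after transfection, depending on culture, given as normalised percent viability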. Reading the numbers: viability, normalised: higher = more viable cells remaining. Call rule: 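Active when normalised viability falls below 80 percent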. Meaning of the calls: active = viability under 80%; inactive = viability 80% or more.
Shown is an unselected part of the about 2,100 reagents, in one setting of the screen. 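Calls flag viability under 80% in either arm, not effects specific to rucaparib; the reference for percent is not stated.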 The record does not give: the 100% reference.

target gene,technical replicate,"viability, normalised (%)",call
FXR1 (GeneID 8087),1,61.4,active
FXR1 (GeneID 8087),2,79.4,active
FXR1 (GeneID 8087),3,77.4,active
CLDN16 (GeneID 10686),1,59.3,active
CLDN16 (GeneID 10686),2,60,active
CLDN16 (GeneID 10686),3,64,active
CHTOP (GeneID 26097),1,63.3,active
CHTOP (GeneID 26097),2,68.3,active
CHTOP (GeneID 26097),3,65.9,active
ORC1 (GeneID 4998),1,71.3,active
ORC1 (GeneID 4998),2,74.1,active
ORC1 (GeneID 4998),3,72.3,active
TRMT6 (GeneID 51605),1,72.2,active
TRMT6 (GeneID 51605),2,67.3,active
TRMT6 (GeneID 51605),3,95.5,inactive
KDM3A (GeneID 55818),1,42.8,active
KDM3A (GeneID 55818),2,50.2,active
KDM3A (GeneID 55818),3,50.7,active
TAF9 (GeneID 6880),1,92.7,inactive
TAF9 (GeneID 6880),2,83,inactive
TAF9 (GeneID 6880),3,83.8,inactive

A portion taken from the entries so far:
target gene,technical replicate,"viability, normalised (%)",call
FXR1 (GeneID 8087),3,77.4,active
CLDN16 (GeneID 10686),1,59.3,active
CLDN16 (GeneID 10686),2,60,active
CLDN16 (GeneID 10686),3,64,active
CHTOP (GeneID 26097),1,63.3,active
CHTOP (GeneID 26097),2,68.3,active

Further records follow:
target gene,technical replicate,"viability, normalised (%)",call
PHIP (GeneID 55023),1,62.9,active
PHIP (GeneID 55023),2,60.8,active
PHIP (GeneID 55023),3,81.6,inactive
POLE3 (GeneID 54107),1,51.3,active
POLE3 (GeneID 54107),2,59.8,active
POLE3 (GeneID 54107),3,55.9,active
DDX23 (GeneID 9416),1,61.2,active
DDX23 (GeneID 9416),2,56.5,active
DDX23 (GeneID 9416),3,70.3,active
RRM2B (GeneID 50484),1,70,active
RRM2B (GeneID 50484),2,69.8,active
RRM2B (GeneID 50484),3,67.5,active
AIRE (GeneID 326),1,70,active
AIRE (GeneID 326),2,64.9,active
AIRE (GeneID 326),3,63.2,active
LIG1 (GeneID 3978),1,66.7,active
LIG1 (GeneID 3978),2,78.2,active
LIG1 (GeneID 3978),3,71,active
